Screen size: about 1,800 compounds; fewer than 10 were called active. Not shown: some 16% with an inconclusive outcome.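 How the source made its calls: active means compound lowering the normal-ribosome reporter at least twice as much as the humanized-ribosome reporter, growth loss under a set limit; inconclusive means no clear call, values can overlap the other calls; inactive means the rest.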 This is a selection; strong and weak results do not stand in their true shares. Potency and affinity values are given separately.
assay: E. coli strain growth, wild-type against G2058 humanized RFP mutant – G2058 mutant RFP vs wild-type GFP, cherry-pick, two tests, dose response (AID 1035470); details: E. coli WT-GFP vs G2058-humanized RFP, fluorescence, 24 h; at 50 µM (top of the series)

Question: Which activity change, negative = inhibition does the source give for `CC(=O)OC1N=C(c2ccccc2Cl)c2cc(Br)ccc2NC1=O` (stereo not given) here?
Answer: Its activity change, negative = inhibition is inactive: -22.6.

Question: For `CN1CCC(c2c[nH]c3ccccc23)C1` (stereo not given), which activity change, negative = inhibition is on record?
Answer: Its activity change, negative = inhibition is inactive: -6.44.

Question: Which activity change, negative = inhibition does the source give for `Cc1c(C(=O)Nc2ccccc2)c2cc(O)ccc2n1Cc1ccccc1` here?
Answer: Its activity change, negative = inhibition is inactive: -6.47.

Question: With `O=[N+]([O-])c1ccc(N2CCOCC2)c2c1no[n+]2[O-]` as the molecule, how does the activity change, negative = inhibition read?
Answer: Its activity change, negative = inhibition is inactive: -8.5.

Question: For `Oc1ccc2c3c1OC1c4oc5ccccc5c4C[C@@]4(O)[C@@H](C2)N(CC2CC2)CC[C@]314` (stereo not given in full), which activity change, negative = inhibition is on record?
Answer: The activity change, negative = inhibition was inactive: -14.5.

Question: Which activity change, negative = inhibition does the source give for `Oc1c(Br)cc(Br)cc1Br` here?
Answer: Its activity change, negative = inhibition is inactive: -9.83.

Question: Which activity change, negative = inhibition does the source give for `CC(C)CCn1c(N)c(C(=O)NCc2cccs2)c2nc3ccccc3nc21` here?
Answer: Its activity change, negative = inhibition is inactive: 22.2.

Question: Which activity change, negative = inhibition does the source give for `CC(C)Cc1nc(N2CCNCC2)c(C#N)c2c1CCC2` here?
Answer: The activity change, negative = inhibition was inactive: -9.91.

Question: With `O=C1CC(=O)N(Cc2ccccc2)C(=O)N1CCCCCCN1C(=O)CC(=O)N(Cc2ccccc2)C1=O` as the molecule, how does the activity change, negative = inhibition read?
Answer: Its activity change, negative = inhibition is inactive: 3.66.

Question: Which activity change, negative = inhibition does the source give for `c1ccc(Nc2ccc3ccccc3c2)cc1` here?
Answer: Its activity change, negative = inhibition is inactive: -12.3.

Source: PubChem BioAssay AID1035470 (Broad Institute, 2014)
